From US5359047 come the findings set out here.

The chains behind the UniProt entries cited, without tags or fusion partners. Residues count along the entry.
UniProt Q08945, 2-709: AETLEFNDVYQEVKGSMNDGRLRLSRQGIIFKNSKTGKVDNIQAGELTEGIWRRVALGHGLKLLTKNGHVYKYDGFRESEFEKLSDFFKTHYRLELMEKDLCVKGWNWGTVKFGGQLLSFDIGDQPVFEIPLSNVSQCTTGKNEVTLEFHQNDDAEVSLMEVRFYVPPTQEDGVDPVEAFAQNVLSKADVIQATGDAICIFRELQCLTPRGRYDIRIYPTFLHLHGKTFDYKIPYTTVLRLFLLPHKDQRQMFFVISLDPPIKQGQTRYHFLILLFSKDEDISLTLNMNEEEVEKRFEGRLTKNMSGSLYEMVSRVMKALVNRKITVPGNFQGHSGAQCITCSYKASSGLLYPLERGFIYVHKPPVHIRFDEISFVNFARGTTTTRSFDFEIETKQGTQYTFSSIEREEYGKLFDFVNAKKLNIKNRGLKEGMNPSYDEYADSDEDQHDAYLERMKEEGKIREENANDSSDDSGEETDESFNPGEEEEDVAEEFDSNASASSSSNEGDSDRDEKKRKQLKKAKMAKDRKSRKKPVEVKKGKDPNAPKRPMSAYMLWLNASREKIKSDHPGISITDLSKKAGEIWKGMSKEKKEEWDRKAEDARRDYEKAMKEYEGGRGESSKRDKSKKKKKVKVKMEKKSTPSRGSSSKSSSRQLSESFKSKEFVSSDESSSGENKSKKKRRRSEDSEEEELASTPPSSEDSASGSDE

At least one result comes from cells or an extract, where the contact may be indirect. A negative result means that nothing was seen under these conditions.

The series addresses cis-DDP structure-specific recognition protein (SSRP), cellular (Homo sapiens) (UniProt Q08945). The experiment in a line: EMSA. Conditions: protein in an extract, label: 5'-32P bottom strand, variant of 110 bp ligated cis-d(GpG) oligo, only the site is given. For orientation: A gel shift assay detects complexes by their altered migration in electrophoresis.

For the sequence “TCTCCTTCTTGGTTCTCTTCTC (double strand) [44 or 66 bp ligated cis-d(GpG) oligo]”, the binding result (cis-DDP 1,2-intrastrand d(GpG), 88 and 110 bp bound, 44 and 66 bp not bound) is reported as “no binding”.
With “TCTCCTTCTTGGTTCTCTTCTC (double strand) [110 bp ligated unmodified oligo]”, under “nonspecific binding only”, the binding result is “no binding”.
